These are yes or no findings as the source states them, for the method shown. In cells and extracts the contact can be indirect. Some binding calls cover weakened binding; strength is not graded here.

Protein sequences, listed by entry. Tags and fused reporters are not part of them.
UniProt Q13227: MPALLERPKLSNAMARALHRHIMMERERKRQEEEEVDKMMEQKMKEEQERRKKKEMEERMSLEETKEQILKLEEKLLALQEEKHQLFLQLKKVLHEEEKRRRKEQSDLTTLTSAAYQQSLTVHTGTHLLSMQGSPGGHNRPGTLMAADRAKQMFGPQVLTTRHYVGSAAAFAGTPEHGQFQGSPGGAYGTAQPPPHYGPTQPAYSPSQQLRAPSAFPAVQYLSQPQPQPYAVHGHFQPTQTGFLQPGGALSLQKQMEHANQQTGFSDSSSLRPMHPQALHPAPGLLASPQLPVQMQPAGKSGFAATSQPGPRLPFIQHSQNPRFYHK
UniProt P15682: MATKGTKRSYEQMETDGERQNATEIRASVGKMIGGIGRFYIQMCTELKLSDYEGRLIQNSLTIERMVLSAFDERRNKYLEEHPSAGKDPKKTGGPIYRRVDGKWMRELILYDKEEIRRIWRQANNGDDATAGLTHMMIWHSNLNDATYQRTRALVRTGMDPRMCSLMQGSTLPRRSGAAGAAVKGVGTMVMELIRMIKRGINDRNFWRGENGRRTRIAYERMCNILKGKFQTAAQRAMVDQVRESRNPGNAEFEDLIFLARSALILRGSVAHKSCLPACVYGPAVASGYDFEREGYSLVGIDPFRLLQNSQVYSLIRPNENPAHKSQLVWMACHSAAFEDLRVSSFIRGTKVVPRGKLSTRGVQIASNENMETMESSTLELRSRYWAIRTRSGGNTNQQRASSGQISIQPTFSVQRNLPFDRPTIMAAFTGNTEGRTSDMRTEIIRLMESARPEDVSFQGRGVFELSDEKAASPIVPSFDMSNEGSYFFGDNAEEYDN
UniProt P03427: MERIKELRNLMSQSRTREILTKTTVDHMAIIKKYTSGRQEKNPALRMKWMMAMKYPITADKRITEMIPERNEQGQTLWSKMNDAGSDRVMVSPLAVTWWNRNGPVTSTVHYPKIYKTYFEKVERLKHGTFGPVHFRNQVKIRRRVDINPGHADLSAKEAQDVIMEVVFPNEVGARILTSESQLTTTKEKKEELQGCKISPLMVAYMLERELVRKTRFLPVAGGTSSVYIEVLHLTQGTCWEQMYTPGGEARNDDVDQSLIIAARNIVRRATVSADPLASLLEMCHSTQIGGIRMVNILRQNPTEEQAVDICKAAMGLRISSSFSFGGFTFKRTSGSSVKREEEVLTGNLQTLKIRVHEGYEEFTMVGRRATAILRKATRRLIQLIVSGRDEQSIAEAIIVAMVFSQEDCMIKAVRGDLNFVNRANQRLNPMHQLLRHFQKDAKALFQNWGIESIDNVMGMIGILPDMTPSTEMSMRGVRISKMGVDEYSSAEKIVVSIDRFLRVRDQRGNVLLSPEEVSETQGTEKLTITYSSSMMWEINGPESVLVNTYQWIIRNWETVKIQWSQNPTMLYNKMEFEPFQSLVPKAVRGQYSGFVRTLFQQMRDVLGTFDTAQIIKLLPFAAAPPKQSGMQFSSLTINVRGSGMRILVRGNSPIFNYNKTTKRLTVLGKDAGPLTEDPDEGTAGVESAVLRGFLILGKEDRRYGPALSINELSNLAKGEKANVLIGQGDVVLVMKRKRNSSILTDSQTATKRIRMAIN
UniProt P03430: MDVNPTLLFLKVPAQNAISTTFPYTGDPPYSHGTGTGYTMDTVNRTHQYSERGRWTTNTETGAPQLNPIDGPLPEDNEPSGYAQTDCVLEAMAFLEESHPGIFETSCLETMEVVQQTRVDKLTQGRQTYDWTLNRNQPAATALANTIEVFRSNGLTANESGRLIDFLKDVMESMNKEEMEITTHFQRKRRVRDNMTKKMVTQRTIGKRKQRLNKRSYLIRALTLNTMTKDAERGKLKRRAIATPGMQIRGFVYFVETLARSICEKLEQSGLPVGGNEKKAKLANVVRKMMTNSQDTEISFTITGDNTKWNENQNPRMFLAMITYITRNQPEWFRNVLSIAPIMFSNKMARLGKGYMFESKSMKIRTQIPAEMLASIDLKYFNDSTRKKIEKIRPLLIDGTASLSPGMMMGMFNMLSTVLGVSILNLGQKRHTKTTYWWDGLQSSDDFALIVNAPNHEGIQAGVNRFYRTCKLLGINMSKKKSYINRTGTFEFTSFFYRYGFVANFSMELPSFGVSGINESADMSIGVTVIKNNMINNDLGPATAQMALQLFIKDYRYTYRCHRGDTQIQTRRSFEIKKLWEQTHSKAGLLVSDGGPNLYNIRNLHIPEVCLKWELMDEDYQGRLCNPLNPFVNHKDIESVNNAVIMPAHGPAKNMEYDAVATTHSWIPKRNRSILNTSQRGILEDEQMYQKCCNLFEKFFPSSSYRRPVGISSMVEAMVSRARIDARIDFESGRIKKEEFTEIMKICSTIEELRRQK

This passage reports binding results from publication PMC8139649.

The target of this assay is HA-GPS2 stably expressed in A549 cells (A549^GPS2+) (human) (UniProt Q13227). As to the kind of experiment: co-IP.
“NP of A/WSN/33 (H1N1) in infected cells (from UniProt P15682 1-498)”: the binding entry is reported as “binds”.

Regarding “PB2 of A/WSN/33 (H1N1) in infected cells (from UniProt P03427 1-759)”, the binding entry is on record as “binds”.

For the substance “PB1 of A/WSN/33 (H1N1) in infected cells (from UniProt P03430 1-757)”, the binding entry is recorded as “binds”.
